These results are taken from publication PMC4228979, “Conserved cis-regulatory modules in promoters of genes encoding wheat high-molecular-weight glutenin subunits”.

For at least one entry, the source does not settle the construct or the ends of the probe. No signal at the amounts used counts as a negative. Tags and fusion partners may be left off the protein sequences shown. The comparison behind a weaker result is the experiment's own reference, which may not be listed here.

In this series the target is T1, His-SPA (Storage Protein Activator, bZIP) (UniProt A0A9R1IS55).
T1 sequence (looked up, limits assumed): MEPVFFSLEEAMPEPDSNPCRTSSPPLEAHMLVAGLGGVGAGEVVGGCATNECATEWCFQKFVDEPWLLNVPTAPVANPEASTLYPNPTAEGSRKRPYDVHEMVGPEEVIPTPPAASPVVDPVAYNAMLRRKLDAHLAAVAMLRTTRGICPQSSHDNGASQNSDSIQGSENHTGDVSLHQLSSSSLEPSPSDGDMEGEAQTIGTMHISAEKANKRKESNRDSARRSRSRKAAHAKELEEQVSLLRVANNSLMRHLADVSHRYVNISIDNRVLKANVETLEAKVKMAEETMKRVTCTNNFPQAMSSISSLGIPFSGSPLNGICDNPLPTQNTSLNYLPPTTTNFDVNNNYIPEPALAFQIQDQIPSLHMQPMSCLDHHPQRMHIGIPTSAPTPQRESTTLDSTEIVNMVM
Description: EMSA. Conditions: 10 mM Tris pH 7.5, 100 mM KCl, 2 mM DTT, 2 mM EDTA, 10% glycerol, 0.05% nonyl phenoxypolyethoxylethanol, 0.5 mM PMSF, 100 ng/uL poly(dI.dC), 250 ng/uL fish sperm DNA; recombinant protein; protein details: His tag (pDEST17); label: 3' biotin on each strand.

As to “ATAGATGTTGTGAGTCATTGGATAG (double strand) [GLM1 (-647)]”, the binding result was “binds more weakly”.

On to “ATAGATATTTTTATTAAGCATGGA (double strand) [glm2]”, for which the binding result was “no binding”.

For “GCCCATTACGTGGCTTTAGCAGACC (double strand) [G-box (-227)]”, the binding result is recorded as “binds more weakly”.
